From the supplement of paper PMC3334620
The full ranking holds about 33,000 sequences; the median of “E-score (-0.5 to 0.5)” is about -0.0059, and the highest 2% start at about 0.26. The list shows a part of the results.

These sequences were tested against T1, Cin5 (UniProt P40917) (assay: PBM E-score (8-mer binding enrichment) (E-score (-0.5 to 0.5)); higher = stronger / more preferred TF binding). Conditions: protein concentration: 100 nM; construct: GST-full length.
T1 sequence: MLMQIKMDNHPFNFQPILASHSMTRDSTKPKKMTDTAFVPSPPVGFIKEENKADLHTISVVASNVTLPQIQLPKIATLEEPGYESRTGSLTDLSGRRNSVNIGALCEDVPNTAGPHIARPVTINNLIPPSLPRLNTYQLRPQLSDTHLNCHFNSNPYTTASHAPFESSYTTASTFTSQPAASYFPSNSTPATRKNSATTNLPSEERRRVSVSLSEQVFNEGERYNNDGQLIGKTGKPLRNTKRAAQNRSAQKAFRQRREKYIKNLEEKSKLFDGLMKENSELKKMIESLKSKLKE
Summary of the method: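 Bound GST-tagged yeast transcription factors, applied at about 100-200 nM to double-stranded universal all-10-mer Agilent arrays, were detected with fluorescent anti-GST. Scans were normalised with masliner. A modified Wilcoxon-Mann-Whitney statistic, the E-score, was assigned to each ungapped eight-base word pooled with its reverse complement by the Universal PBM Analysis Suite.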

Sequence | PBM E-score
CCGACAAA | 0.0778
CCGAGAAG | -0.0618
CGTGTACA | 0.155
CACTTTAA | 0.159
ATACCACG | 0.0683
AGATTCGC | -0.0341
ATGGCGTG | 0.126
CCTAGACG | -0.162
CTAATTTA | 0.158
CACTGCAG | -0.0359
GAAAGCGC | -0.147
GAACCTTC | -0.0397
ACCAAAGT | 0.00958
AACCAGTG | -0.124
CGAAGCAG | -0.0936
ACAGCTGG | -0.0712
TTCCTCAA | -0.0594
GTAAAAGA | 0.0603
AGGAGCCA | -0.193
AACACTCA | 0.182
TGGTGGAA | -0.0761
ACAGGCCG | -0.134
GAGTACTC | 0.0898
GCAGTGTA | -0.126
AGTCTCCG | 0.13

Sequence | PBM E-score
GCTGCCAC | -0.142
AAGGACAT | -0.159
GAAAAATA | 0.158
AGATACTC | 0.14
ACTGACGA | -0.0541
TAAGTTAA | 0.175
ACATCGCG | -0.0247
GATTGTGC | 0.00566
CCTGCCGC | -0.267
TCGGTAAA | 0.0995
ACCAGCTC | -0.0121
CGTCAACG | -0.14
AAAATCCT | -0.223
ATGCCCGG | -0.11
CCTGGATA | -0.223
ACCTTTTA | -0.188
CCGCCGCG | -0.128
ATCCTTTG | 0.131
GATCGGCC | -0.242
CACTTTTC | 0.155
GTATGCAC | -0.0543
ACCACGGG | -0.131
AATTTTAC | 0.11
GTGTTATA | 0.101
CCAAAAAG | -0.0799

Sequence | PBM E-score
GTTGGGTA | 0.0626
CCCAAGGC | -0.0737
GGAGGCTA | -0.236
ATAATCGC | 0.187
ACATTAAG | 0.0877
CCCGCCGA | -0.0686
ACCGGTTA | 0.056
CATAACCC | 0.0376
GAATTGTA | -0.0336
CTTGCAAA | 0.109
AGAAACAA | 0.229
CAGATGCA | -0.076
AACCACGA | -0.00917
GCTTCGGA | -0.00651
CAAGTTCA | 0.202
GATTATGA | 0.291
CTGCAGAA | 0.0919
CCGTTCGA | 0.0174
CGCGGCTC | 0.0421
CATGGCGG | -0.0455
ATACAGAA | 0.158
CCGTGGCG | -0.165
CCTTAAAG | -0.108
AGCTGGTG | -0.0421
CATTTAGG | -0.185

Four entries from above, set out differently:
Sequence	PBM E-score
GTTGGGTA	0.0626
CAGATGCA	-0.076
GCTTCGGA	-0.00651
CATGGCGG	-0.0455

(continued)

Sequence | PBM E-score
CCAAATAC | -0.0406
ACAACACT | 0.176
ACGCCGTA | -0.0821
GGATGTTA | 0.123
CTTGCAGA | -0.0335
CTCGGAAA | 0.115
GTCGCGGA | -0.118
AGGGGTAT | -0.00308
CTATAATA | 0.114
CAAGCATA | 0.117
GCATAGGC | -0.109
CACATCCA | 0.0527
AACATAGC | 0.0812
CGATAGCG | 0.0741
ACTAAATA | 0.181
CCAGCGGA | -0.278
ACGCATGC | 0.118
CCCTCTTA | -0.0202
AAGGCTTG | -0.0768
CAACGTAC | -0.00344
CTCTCACC | -0.038
CGACATCG | -0.167
GTTATCTA | 0.131
ACAGCCCT | -0.343
GACCAGCA | 0.0449

Two entries drawn at random from the list so far, as already listed:
Sequence | PBM E-score
ACGCATGC | 0.118
CCAGCGGA | -0.278

Further records follow:

Sequence | PBM E-score
AACACCGT | -0.138
TCCTTGAA | -0.126
AGGGTTCG | -0.169
TATTGACA | 0.0175
CCAGGTCC | -0.297
ACGGATAT | 0.128
CTGCGGAA | -0.0698
AGCGCGAA | 0.211
GATATTCA | 0.0685
AATTAGCT | 0.0688
GCCCCCCC | -0.384
GAATCCAA | 0.0873
GACGGGAC | -0.176
ACCCAGTG | -0.175
AAGGAAAC | -0.00746
ACACACTA | 0.15
AATGCATT | 0.259
ATCCAACG | -0.161
CAGGTTAC | 0.0316
AACCATGA | 0.206
CGGAGAGA | 0.0648
TAGCGATA | 0.137
AGGCGAAA | -0.0123
CAGGATGG | -0.109
CGGGCGAA | 0.0521

Sequence | PBM E-score
GGGCGAAC | 0.103
GTCGGTTA | -0.00349
CATCTTCC | 0.138
ACCGTCGT | 0.0964
ACATTGGC | -0.0322
CACCGGAC | -0.146
CTGGGCTA | 0.0109
CTATTTCA | 0.192
AGCGACGG | -0.0627
ACGAGCAG | 0.0391
CGCCAGGA | -0.0898
AAATCATA | 0.198
AAGCGAAC | 0.166
CGCGCTCA | 0.0166
ATACGACC | -0.159
ATCAACTA | 0.181
ACATACCC | 0.0456
GCAAAGGA | 0.142
ATATTCCC | 0.096
GAATTGCC | -0.0572
AAAGCAGA | 0.178
GACCAACC | -0.125
CAAGAGGA | -0.0705
CGCCAGCG | -0.226
ACATGATC | 0.129

Sequence | PBM E-score
TTGTGAAA | 0.0231
AAGGTTTA | -0.134
CACCCTGC | -0.122
ACGGAAGC | -0.0136
TACCTCAA | -0.028
GCATTCCC | -0.00639
AAGGGTCA | -0.0987
ATCTTCTA | 0.0464
CATAAATC | 0.254
GATTTGGA | 0.0797
GAGTAACA | 0.145
ATTATGCA | 0.118
AAAGCATG | -0.0464
CCGGGAAA | -0.104
GGGAGGGA | 0.014
GCTCTCCC | -0.233
AAAATATT | 0.243
AATGGGGC | -0.152
AGTGGACC | -0.231
ATGTCCGA | -0.0572
CATTAAAC | 0.0264
CGATTTAA | 0.0596

Single entries from the results shown.
Value of GTCGGTTA under PBM E-score: -0.00349
Value of CCTTAAAG under PBM E-score: -0.108
Value of GATCGGCC under PBM E-score: -0.242
Value of ACAACACT under PBM E-score: 0.176
Value of CAGATGCA under PBM E-score: -0.076
